In US20250073226A1, “USE OF OPIOID FOR TREATMENT OF AUTISM SPECTRUM DISORDERS” (priority 2021, published 2025):
“And” between values parts separate entries of the source, which are not always exact repeats. Equal entries are not always repeated.

Key:
[1] = Pharmacokinetic: drug concentrations in plasma by LC-MS after subcutaneous administration; settings: ICR mice; for concentration at 15 min / concentration at 30 min / concentration at 60 min / concentration at 90 min: ICR, mouse, plasma, subcutaneous; for concentration at 15 min: Plasma concentration Morphine After 15 minutes; for concentration at 30 min: Plasma concentration Morphine After 30 minutes; for concentration at 60 min: Plasma concentration Morphine After 60 minutes; for concentration at 90 min: Plasma concentration Morphine After 90 minutes
[2] = tested on: valproic acid model mice (VPA model); assay: Social interaction test in valproic acid model mice; assay type: in vivo, ICR mice; settings: single s.c. dose
Excerpt: Since ASD-like symptoms such as social impairment and cognitive dysfunction are observed, it is one of the most widely used the ASD model mice.
As the sociality evaluation, a method called a social interaction test was used. In the Social Interaction Test, two mice are placed in one cage, and how many seconds a target mouse (Test mouse) performs sniffing, which is social behavior, on another mouse (Intruder mouse) is quantified.

[3] = morphine hydrochloride 0.03 mg/kg s.c., individual animals
[4] = morphine hydrochloride 0.1 mg/kg s.c., individual animals
[5] = morphine hydrochloride 3 mg/kg s.c., individual animals
[6] = 0.03 mg/kg, morphine hydrochloride 0.03 mg/kg s.c., Average value
[7] = 0.03 mg/kg, morphine hydrochloride 0.03 mg/kg s.c., individual animals
[8] = 0.1 mg/kg, morphine hydrochloride 0.1 mg/kg s.c., Average value
[9] = 0.1 mg/kg, morphine hydrochloride 0.1 mg/kg s.c., individual animals
[10] = 3 mg/kg, morphine hydrochloride 3 mg/kg s.c., Average value
[11] = 3 mg/kg, morphine hydrochloride 3 mg/kg s.c., individual animals

Question: Which results are given for `CN1CC[C@]23c4c5ccc(O)c4O[C@H]2[C@@H](O)C=C[C@H]3[C@H]1C5` [morphine]?
Answer: Plasma concentration Morphine After 15 minutes [1, 3]: 1.74 ng/mL and 1.9 ng/mL; Plasma concentration Morphine After 30 minutes [1, 3]: 0.993 ng/mL and 0.966 ng/mL; Plasma concentration Morphine After 60 minutes [1, 3]: 0.606 ng/mL and 0 ng/mL (2×); Plasma concentration Morphine After 90 minutes [1, 3]: 0 ng/mL; Plasma concentration Morphine After 15 minutes [1, 4]: 5.62 ng/mL and 8.85 ng/mL; Plasma concentration Morphine After 30 minutes [1, 4]: 2.99 ng/mL and 2.47 ng/mL; Plasma concentration Morphine After 60 minutes [1, 4]: 0 ng/mL and 0.579 ng/mL; Plasma concentration Morphine After 90 minutes [1, 4]: 0 ng/mL; Plasma concentration Morphine After 15 minutes [1, 5]: 442 ng/mL and 361 ng/mL; Plasma concentration Morphine After 30 minutes [1, 5]: 241 ng/mL and 123 ng/mL and 105 ng/mL; Plasma concentration Morphine After 60 minutes [1, 5]: 74.1 ng/mL and 70 ng/mL; Plasma concentration Morphine After 90 minutes [1, 5]: 16 ng/mL and 16.9 ng/mL and 32.2 ng/mL; concentration at 15 min [1, 6]: 2.33 ng/mL; concentration at 15 min [1, 7]: 3.36 ng/mL; concentration at 30 min [1, 6]: 1.12 ng/mL; concentration at 30 min [1, 7]: 1.39 ng/mL; concentration at 60 min [1, 6]: 0.202 ng/mL; concentration at 90 min [1, 6]: 0 ng/mL; concentration at 90 min [1, 7]: 0 ng/mL; concentration at 15 min [1, 8]: 7.37 ng/mL; concentration at 15 min [1, 9]: 7.65 ng/mL; concentration at 30 min [1, 8]: 3.02 ng/mL; concentration at 30 min [1, 9]: 3.61 ng/mL; concentration at 60 min ([1]; 0.1 mg/kg, morphine hydrochloride 0.1 mg/kg s.c., Average value (N = 3 excluded as outlier)): 0.29 ng/mL; concentration at 90 min [1, 8]: 0 ng/mL; concentration at 90 min [1, 9]: 0 ng/mL; concentration at 15 min [1, 10]: 362 ng/mL; concentration at 15 min [1, 11]: 284 ng/mL; concentration at 30 min [1, 10]: 156 ng/mL; concentration at 60 min [1, 10]: 71.7 ng/mL; concentration at 60 min [1, 11]: 71 ng/mL; concentration at 90 min [1, 10]: 21.7 ng/mL; improvement effect in social impairment at a high dose ([2]; high dose close to the analgesic dose): reduced the improvement effect in social impairment; improvement effect in social impairment ([2]; low dose of less than 1/10 of the dose of maximum analgesic effect, 20 minutes from 1 hour after administration): significant improvement effect in social impairment
